For assay [1], the target named is T1, BK channel γ1 subunit (LRRC26) N147Q mutant, N-terminally FLAG-tagged (human) (UniProt Q2I0M4).
T1 sequence: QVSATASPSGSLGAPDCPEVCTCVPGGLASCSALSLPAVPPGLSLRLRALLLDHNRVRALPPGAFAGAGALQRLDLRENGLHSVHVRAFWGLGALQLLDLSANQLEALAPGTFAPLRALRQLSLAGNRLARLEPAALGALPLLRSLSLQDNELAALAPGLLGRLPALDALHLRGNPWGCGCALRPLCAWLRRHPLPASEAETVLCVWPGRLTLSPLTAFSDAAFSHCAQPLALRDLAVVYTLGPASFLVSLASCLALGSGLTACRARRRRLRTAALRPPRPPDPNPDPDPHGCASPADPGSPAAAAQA
The experiment in a line: co-IP; cell surface immunoprecipitation: live HEK-293 cells coexpressing BKα and N-terminally FLAG-tagged γ1 incubated with rabbit polyclonal anti-FLAG antibody in PBS for 30 min at ambient temperature, lysed with 2% DDM in TBS, protein A agarose at 4 °C overnight; BKα detected by immunoblot and normalised to the γ1 band; cells treated with or without tunicamycin (5 μg/ml, 20 h). (In western blotting, separated proteins are transferred to a membrane and probed.)

Protein sequences, listed by entry. Tags and fused reporters are not part of them.
UniProt Q12791: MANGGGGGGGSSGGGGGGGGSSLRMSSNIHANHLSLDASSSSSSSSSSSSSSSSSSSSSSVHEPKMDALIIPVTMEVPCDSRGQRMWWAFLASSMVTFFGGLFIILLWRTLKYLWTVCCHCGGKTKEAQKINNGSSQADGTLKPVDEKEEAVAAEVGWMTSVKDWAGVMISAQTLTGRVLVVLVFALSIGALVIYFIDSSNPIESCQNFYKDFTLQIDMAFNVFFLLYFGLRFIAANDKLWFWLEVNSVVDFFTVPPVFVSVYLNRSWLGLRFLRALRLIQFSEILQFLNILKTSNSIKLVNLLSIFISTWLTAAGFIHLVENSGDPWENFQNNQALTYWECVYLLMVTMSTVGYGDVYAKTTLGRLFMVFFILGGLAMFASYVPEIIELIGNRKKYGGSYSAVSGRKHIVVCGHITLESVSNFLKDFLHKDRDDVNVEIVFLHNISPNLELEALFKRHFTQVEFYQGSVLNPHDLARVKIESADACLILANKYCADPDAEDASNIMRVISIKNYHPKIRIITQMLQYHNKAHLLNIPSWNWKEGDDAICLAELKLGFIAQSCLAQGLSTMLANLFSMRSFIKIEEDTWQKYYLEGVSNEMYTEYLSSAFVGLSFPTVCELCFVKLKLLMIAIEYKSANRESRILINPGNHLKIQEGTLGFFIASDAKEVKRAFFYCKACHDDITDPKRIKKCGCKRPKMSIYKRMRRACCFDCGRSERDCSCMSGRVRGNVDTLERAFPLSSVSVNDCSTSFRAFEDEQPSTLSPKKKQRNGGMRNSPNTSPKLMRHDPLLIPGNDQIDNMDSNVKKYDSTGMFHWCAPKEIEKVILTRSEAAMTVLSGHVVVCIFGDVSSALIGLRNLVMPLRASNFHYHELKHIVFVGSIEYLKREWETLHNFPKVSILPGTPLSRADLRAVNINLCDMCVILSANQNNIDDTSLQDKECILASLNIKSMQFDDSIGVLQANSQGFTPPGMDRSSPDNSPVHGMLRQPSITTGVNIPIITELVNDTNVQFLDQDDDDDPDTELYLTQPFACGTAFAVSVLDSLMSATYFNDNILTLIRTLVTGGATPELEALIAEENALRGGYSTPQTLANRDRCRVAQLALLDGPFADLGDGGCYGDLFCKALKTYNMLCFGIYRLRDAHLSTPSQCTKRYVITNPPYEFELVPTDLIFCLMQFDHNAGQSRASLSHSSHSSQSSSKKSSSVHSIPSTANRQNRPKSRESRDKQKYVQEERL

Assay [2] concerns the target T2, BK channel γ1 subunit (LRRC26), wild type, N-terminally FLAG-tagged (human) (UniProt Q2I0M4).
T2 sequence (chain, N-linked glycan at N147 (absent after treatment of the cells with tunicamycin)): T1 sequence with Q121N
The assay is described as above.

Changes are numbered by the printed parent chain. These are yes or no findings as the source states them, for the method shown. Binding seen in cells or lysates may run through a third protein. Some results given as binding are weak or reduced against the parent protein; the word gives no strength. Where a sequence is shown, tags or fusion partners need not be part of it.

Turning to “BK channel α subunit (BKα) (from UniProt Q12791 1-1236)”, the binding entry in assay [1] and in assay [2] was “binds” in each case.

Source of the values: PMC8892010.
